Data taken from the supplement of paper PMC10849652.
This is one part of the list.

Chains of the proteins cited; added tags and fusions are not shown. Lines headed by an entry give the natural chain unless they say otherwise; changes in a name come on top.
UniProt O43674, whole entry, looked up: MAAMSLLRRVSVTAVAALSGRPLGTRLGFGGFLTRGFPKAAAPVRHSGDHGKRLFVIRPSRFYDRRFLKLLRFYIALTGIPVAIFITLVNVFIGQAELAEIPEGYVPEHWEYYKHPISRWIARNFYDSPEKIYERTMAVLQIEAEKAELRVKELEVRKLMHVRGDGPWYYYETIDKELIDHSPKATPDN
UniProt Q9BZQ8: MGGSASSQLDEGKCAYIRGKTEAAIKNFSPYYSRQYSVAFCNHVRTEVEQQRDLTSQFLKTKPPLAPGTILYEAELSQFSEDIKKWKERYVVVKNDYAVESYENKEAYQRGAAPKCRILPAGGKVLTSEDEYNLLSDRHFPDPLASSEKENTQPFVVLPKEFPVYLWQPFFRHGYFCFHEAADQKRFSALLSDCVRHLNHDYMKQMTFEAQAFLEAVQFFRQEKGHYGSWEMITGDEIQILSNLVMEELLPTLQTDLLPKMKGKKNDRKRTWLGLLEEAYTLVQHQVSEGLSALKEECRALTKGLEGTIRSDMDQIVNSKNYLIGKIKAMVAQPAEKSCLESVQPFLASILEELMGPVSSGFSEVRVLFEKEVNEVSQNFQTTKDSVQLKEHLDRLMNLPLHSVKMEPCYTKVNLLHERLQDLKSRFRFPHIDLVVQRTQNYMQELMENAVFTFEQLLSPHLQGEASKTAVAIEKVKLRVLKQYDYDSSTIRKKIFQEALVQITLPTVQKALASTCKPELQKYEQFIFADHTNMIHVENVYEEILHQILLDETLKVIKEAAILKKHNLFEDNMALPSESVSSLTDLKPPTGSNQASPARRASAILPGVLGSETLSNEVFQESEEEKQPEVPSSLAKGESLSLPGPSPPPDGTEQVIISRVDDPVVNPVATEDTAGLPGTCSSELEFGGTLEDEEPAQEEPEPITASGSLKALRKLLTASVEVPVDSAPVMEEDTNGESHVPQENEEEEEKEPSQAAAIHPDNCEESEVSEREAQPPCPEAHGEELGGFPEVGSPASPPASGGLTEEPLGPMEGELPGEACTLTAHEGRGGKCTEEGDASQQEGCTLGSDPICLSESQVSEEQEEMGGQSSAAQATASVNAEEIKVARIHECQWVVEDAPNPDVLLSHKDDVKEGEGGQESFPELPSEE
UniProt Q0ZGT2: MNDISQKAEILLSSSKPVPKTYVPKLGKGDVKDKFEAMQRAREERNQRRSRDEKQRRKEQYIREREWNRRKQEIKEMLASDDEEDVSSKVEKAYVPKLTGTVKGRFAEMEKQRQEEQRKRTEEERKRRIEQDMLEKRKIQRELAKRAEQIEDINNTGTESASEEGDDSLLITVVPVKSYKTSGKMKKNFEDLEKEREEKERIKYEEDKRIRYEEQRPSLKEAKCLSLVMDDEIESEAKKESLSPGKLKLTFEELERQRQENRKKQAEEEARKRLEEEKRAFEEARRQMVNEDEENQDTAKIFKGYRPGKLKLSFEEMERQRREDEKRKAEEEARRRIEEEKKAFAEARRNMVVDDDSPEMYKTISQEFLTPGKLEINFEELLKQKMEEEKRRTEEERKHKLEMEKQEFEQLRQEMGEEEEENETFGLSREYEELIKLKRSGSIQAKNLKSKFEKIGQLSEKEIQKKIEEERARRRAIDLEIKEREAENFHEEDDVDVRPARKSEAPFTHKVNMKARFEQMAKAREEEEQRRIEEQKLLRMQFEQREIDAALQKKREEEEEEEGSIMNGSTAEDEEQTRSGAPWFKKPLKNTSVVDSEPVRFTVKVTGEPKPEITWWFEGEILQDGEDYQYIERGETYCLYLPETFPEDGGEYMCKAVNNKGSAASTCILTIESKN
UniProt Q9C000: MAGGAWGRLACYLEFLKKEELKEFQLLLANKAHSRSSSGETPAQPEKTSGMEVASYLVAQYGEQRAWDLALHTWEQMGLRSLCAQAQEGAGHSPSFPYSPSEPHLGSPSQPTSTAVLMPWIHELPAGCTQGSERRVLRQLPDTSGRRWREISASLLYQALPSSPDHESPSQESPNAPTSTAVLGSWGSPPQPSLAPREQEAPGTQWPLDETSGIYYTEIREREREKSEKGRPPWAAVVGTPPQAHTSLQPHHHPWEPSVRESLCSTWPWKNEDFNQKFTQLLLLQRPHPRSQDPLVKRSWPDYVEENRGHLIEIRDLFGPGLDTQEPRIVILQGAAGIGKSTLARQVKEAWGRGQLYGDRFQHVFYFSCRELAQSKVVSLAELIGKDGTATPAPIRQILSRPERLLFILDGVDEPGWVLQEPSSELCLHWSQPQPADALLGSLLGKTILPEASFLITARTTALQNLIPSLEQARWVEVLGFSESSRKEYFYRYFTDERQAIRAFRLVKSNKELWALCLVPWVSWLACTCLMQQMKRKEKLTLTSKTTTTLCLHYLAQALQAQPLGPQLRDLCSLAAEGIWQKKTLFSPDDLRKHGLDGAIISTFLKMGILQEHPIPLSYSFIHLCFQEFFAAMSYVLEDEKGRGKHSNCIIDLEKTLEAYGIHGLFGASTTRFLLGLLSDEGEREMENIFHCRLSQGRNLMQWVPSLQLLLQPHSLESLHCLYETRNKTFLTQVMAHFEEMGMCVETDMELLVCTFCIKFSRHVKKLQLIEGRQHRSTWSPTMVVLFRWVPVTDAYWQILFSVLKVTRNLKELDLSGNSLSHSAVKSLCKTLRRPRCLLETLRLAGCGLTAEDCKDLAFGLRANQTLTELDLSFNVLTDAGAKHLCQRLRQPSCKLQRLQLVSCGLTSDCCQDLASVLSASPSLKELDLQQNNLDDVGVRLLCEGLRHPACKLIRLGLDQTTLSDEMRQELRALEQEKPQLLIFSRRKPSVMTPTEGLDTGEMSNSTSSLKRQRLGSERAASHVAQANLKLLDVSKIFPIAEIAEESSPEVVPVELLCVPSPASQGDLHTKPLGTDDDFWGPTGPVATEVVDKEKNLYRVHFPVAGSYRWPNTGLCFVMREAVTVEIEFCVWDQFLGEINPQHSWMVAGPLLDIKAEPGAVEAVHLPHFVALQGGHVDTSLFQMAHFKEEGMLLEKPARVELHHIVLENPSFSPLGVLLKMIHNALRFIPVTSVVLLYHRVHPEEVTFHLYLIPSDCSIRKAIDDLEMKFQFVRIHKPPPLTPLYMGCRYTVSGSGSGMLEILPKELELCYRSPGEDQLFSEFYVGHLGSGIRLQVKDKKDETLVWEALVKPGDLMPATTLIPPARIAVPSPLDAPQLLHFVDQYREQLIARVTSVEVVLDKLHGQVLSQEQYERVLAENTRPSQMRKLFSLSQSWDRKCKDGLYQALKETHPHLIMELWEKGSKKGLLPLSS
UniProt Q9BS92: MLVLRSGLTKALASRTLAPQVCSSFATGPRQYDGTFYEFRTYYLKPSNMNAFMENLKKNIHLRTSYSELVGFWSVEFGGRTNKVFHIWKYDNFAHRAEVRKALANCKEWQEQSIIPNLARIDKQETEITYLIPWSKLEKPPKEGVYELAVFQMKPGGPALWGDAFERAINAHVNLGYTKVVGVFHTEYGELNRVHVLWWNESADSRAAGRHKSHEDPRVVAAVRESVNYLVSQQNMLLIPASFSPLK
UniProt O43677, whole entry, looked up: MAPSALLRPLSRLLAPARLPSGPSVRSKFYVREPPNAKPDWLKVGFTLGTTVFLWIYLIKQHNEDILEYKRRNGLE
UniProt Q13469: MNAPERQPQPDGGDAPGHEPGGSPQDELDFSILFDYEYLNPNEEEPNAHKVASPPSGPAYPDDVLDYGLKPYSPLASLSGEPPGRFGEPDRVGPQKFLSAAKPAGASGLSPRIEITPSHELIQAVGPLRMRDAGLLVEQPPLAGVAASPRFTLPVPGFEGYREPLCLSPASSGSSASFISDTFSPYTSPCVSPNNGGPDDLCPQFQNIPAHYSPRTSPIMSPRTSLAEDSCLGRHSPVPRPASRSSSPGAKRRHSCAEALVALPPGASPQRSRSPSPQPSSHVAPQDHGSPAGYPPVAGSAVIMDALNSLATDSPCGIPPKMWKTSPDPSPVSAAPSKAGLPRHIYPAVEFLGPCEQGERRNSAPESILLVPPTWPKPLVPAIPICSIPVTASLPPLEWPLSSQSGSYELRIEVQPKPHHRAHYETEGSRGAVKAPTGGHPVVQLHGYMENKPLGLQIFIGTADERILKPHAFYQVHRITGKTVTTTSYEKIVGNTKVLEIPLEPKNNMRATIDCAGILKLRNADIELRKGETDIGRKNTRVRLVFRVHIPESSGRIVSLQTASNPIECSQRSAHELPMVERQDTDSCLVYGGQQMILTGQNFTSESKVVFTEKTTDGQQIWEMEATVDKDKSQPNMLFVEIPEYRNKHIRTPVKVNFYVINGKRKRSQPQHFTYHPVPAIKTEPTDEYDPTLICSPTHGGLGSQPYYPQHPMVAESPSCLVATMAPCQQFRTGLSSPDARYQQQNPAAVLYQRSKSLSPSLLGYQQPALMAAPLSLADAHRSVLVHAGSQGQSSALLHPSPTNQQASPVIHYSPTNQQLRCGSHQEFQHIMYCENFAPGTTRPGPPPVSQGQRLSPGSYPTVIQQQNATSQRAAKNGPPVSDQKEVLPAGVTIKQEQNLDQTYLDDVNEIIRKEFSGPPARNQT
UniProt Q9GZT8: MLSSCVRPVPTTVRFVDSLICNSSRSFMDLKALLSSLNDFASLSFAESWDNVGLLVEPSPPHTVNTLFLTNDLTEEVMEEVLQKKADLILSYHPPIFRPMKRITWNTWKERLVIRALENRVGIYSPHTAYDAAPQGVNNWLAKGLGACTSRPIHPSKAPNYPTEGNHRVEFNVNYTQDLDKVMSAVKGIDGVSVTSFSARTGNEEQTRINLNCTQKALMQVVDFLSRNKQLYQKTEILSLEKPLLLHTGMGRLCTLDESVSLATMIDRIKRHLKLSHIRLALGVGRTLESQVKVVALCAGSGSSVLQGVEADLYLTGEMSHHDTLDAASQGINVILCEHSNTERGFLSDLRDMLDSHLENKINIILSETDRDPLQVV
UniProt Q92692, whole entry, looked up: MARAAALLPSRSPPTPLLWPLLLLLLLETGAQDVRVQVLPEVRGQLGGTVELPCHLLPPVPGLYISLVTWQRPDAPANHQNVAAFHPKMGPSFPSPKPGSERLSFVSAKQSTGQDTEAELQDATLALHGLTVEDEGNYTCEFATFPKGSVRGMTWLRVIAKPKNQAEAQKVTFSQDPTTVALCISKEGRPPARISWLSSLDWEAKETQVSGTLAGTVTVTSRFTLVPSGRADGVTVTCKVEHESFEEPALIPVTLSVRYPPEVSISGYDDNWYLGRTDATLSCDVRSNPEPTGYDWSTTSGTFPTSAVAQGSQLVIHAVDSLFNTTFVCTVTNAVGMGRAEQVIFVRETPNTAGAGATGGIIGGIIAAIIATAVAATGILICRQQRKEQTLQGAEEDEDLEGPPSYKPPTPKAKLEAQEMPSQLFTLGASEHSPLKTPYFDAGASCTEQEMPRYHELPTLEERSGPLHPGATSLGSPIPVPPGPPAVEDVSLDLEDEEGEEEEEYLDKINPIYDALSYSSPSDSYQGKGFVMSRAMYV
UniProt Q6P3R8: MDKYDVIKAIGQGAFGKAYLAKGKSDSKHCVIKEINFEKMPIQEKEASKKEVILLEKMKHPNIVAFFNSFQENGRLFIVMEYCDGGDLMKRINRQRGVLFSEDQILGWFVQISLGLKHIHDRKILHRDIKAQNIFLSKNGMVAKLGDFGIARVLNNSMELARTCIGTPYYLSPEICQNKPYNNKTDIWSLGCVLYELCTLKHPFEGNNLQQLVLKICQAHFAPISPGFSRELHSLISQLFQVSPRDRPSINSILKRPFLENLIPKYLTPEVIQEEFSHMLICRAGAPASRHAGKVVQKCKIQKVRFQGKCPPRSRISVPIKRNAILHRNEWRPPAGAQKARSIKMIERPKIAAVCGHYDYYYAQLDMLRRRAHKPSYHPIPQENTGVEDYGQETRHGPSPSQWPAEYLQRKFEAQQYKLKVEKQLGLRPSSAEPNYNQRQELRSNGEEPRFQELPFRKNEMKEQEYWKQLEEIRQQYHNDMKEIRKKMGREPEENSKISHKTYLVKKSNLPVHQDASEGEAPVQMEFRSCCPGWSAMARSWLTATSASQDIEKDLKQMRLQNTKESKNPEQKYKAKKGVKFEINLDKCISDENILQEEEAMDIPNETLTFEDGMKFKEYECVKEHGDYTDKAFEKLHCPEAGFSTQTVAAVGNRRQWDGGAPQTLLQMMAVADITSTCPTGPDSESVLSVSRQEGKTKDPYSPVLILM
UniProt Q9UGV2: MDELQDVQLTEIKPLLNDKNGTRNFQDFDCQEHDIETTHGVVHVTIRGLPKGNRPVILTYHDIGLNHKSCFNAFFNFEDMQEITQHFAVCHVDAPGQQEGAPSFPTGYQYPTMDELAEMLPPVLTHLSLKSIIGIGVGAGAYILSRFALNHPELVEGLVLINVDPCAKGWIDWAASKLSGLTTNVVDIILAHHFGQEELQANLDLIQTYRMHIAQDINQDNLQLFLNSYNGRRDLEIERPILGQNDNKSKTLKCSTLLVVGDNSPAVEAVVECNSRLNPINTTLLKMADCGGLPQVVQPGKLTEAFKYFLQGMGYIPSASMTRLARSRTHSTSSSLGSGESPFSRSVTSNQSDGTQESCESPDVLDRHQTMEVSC

What was measured:
Test in all cases: log2 fold change, soluble protein after heating vs DMSO (PISA); higher = thermal stabilisation; K562 lysate, 10 uM; active = over 0.2 and 3.5 SD of the protein, either way, in both replicates (recomputed)
[1] = compound: C1=CC=C(C=C1)[C@H](COC2=CC3=C(C=C2)NC(=O)N3)NC(=O)C4=CC=CN(C4=O)CC5=CC(=C(C=C5)F)F
Procedure, shortened: (§1)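 Quantification was by TMTpro 16plex LC-MS/MS with equalised channel sums, applied to the supernatant after 21,000xg for 90 min. Samples were crude K562 extract at 1 mg/mL protein in PBS pH 7.4 with 1 mM MgCl2, treated with 10 μM compound for 30 min, heated for 3 min across 48°C-58°C, pooled and brought to 0.5% NP-40 at 4°C. Values are log-two fold changes in thermal stability relative to solvent controls, from duplicates.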

[2] = compound: CC1=C(SC2=C1C(=N[C@H](C3=NN=C(N32)C)CC(=O)N)C4=CC=C(C=C4)Cl)C
Procedure, shortened: as §1

[3] = compound: CC1=C2C(=CC=C1)N=C(N(C2=O)C3=CC=CC=C3C)CN4C=NC5=C(N=CN=C54)N
Procedure, shortened: as §1

[4] = compound: Cc1sc2c(c1C)C(c1ccc(Cl)cc1)=N[C@@H](CC(=O)OC(C)(C)C)c1nnc(C)n1-2
Procedure, shortened: as §1

[5] = compound: c1ccc([C@@H]2C[C@H]2NC2CCNCC2)cc1
Procedure, shortened: as §1

Measured: log2 fold change

NDUFB5 (UniProt O43674)
inactive: [1] 0.028 | [2] -0.021 | [3] 0.023 | [4] -0.05 | [5] 0.024

NIBAN1 (UniProt Q9BZQ8)
inactive: [1] 0.018 | [2] -0.009 | [3] 0.035 | [4] 0.037 | [5] 0.044

NLK (UniProt Q9UBE8)
inactive: [3] -0.109 | [5] -0.28

2 entries drawn at random from the list so far, as already listed:
NLK (UniProt Q9UBE8)
inactive: [3] -0.109 | [5] -0.28

NDUFB5 (UniProt O43674)
inactive: [1] 0.028 | [2] -0.021 | [3] 0.023 | [4] -0.05 | [5] 0.024

Additional entries

NEK8 (UniProt Q86SG6)
inactive: [3] -0.017 | [5] 0.047

NET1 (UniProt Q7Z628)
inactive: [3] -0.019

NEXN (UniProt Q0ZGT2)
inactive: [1] -0.31 | [2] 0.335 | [3] 0.271 | [4] -0.083 | [5] -0.22

NDUFA7 (UniProt M0R0N0)
inactive: [1] -0.084 | [2] 0.041 | [5] -0.703

NFYC isoform 3 (UniProt Q13952)
inactive: [4] -0.022

NLRP1 (UniProt Q9C000)
inactive: [4] 0.135

NIPBL (UniProt Q6KC79)
inactive: [1] 0.003 | [2] -0.055 | [3] -0.001 | [4] -0.014 | [5] -0.01

NDUFAF6 (UniProt Q330K2)
inactive: [1] -0.072 | [2] -0.025 | [4] 0.079 | [5] 0.028

NKRF isoform 2 (UniProt O15226)
inactive: [3] 0.003 | [4] -0.004 | [5] 0.045

NIPSNAP3B (UniProt Q9BS92)
inactive: [1] -0.057 | [2] 0.005 | [3] 0.054 | [5] 0.046

NEO1 (UniProt Q92859)
inactive: [1] 0.093 | [2] 0.185 | [5] 0.117

NDUFA10 (UniProt O95299)
inactive: [1] -0.066 | [2] -0.007 | [3] 0.015 | [4] -0.017 | [5] 0.084

NFE2L1 (UniProt Q14494)
inactive: [3] 0.02 | [5] -0.031

NKAP (UniProt Q8N5F7)
inactive: [1] 0.031 | [2] 0.044 | [3] -0.046 | [4] -0.122 | [5] -0.025

NFRKB isoform 2 (UniProt Q6P4R8)
inactive: [5] -0.022

NLRX1 (UniProt Q86UT6)
inactive: [3] -0.082 | [5] 0.047

NDUFC1 (UniProt O43677)
inactive: [4] -0.042

NDFIP2 (UniProt Q9NV92)
inactive: [5] -0.218

NEDD4 isoform 4 (UniProt P46934)
inactive: [1] -0.012 | [2] 0.102 | [3] -0.003 | [4] -0.014 | [5] 0.034

NFATC2 (UniProt Q13469)
inactive: [1] 0.027 | [2] 0.073 | [3] 0.064 | [4] 0.031 | [5] -0.1

NIPA1 (UniProt Q7RTP0)
inactive: [1] -0.095 | [2] 0.035 | [3] -0.05 | [5] -0.002

NEURL4 (UniProt Q96JN8)
inactive: [3] 0.018 | [4] 0.072 | [5] 0.043

NIF3L1 (UniProt Q9GZT8)
inactive: [1] 0.046 | [2] -0.002 | [3] 0.031 | [4] 0.002 | [5] -0.044

NKX2-2 (UniProt O95096)
inactive: [1] -0.046 | [2] 0.094 | [3] 0.053 | [5] -0.297

NECTIN2 isoform 2 (UniProt Q92692)
inactive: [3] 0.049 | [4] -0.117 | [5] -0.096

NDUFV1 (UniProt P49821)
inactive: [1] 0.027 | [2] 0.011 | [3] -0.004 | [4] 0.014 | [5] 0.004

NEK5 (UniProt Q6P3R8)
inactive: [3] 0.079 | [4] -0.293 | [5] 0.082

NIN isoform 7 (UniProt Q8N4C6)
inactive: [5] 0.029

NKIRAS1 (UniProt Q9NYS0)
inactive: [3] 0.247 | [4] -0.057 | [5] -0.103

NIP7 (UniProt Q9Y221)
inactive: [1] 0.016 | [2] -0.036 | [3] 0.036 | [4] 0.053 | [5] -0.068

NHLRC3 (UniProt Q5JS37)
inactive: [3] 0.066 | [4] -0.069 | [5] -0.131

NDRG3 (UniProt Q9UGV2)
inactive: [1] -0.006 | [2] 0.002 | [3] 0.017 | [4] 0.018 | [5] 0.033
